Assay results from patent US20240343803A1.
No constants are given. Whether binding was seen depends on the method and setting. Binding calls can cover weak binding; strength is not graded here.

By UniProt entry, the sequences of proteins in these tests, tags left out. Where a name states a change or a piece, a line headed by the entry shows the natural chain unless it says otherwise.
UniProt Q6DKI7: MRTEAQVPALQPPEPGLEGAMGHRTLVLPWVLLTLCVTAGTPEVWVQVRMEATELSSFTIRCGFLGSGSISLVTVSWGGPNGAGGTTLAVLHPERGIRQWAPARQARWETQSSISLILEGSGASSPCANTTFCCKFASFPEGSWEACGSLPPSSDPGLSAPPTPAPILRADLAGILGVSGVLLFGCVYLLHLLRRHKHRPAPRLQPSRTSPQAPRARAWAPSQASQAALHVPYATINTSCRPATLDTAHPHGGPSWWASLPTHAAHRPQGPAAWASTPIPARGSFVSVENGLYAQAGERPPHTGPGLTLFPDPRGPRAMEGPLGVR

Columns and labels:
[1] = biological target: human PVRIG-his (AcroBiosystems, Cat NO. PVG-H52H4) (human) (UniProt Q6DKI7); assay: ELISA
[2] = biological target: human PVRIG-his (AcroBiosystems, Cat NO. PVG-H52H4) (human) (UniProt Q6DKI7); assay: competition ELISA on coated human PVRIG-his; blocked ligand human PVRL2-mFc
[3] = biological target: human PVRIG-his (AcroBiosystems, Cat NO. PVG-H52H4) (human) (UniProt Q6DKI7); assay: BIAcore

binding [1]	binding [2]	binding [3]	Binder
binds	binds	binds	PVRIG-A105 (VHH, not shown: a dimerising Fc or GST) VHH: EVQLVESGGGLVQAGGSLRLSCAASGRTFDRHTMTWFRQAPGKEREFVATASRIPGDTYYSHSVKGRFTISRDNAKNTVYLQLNNLKPEDTAVYYCAATSAYCSEVDCYEKGSWYDNWGQGIQVTVSS
–	–	binds	PVRIG-A105-H5 (VHH) VHH: EVQLVESGGGLVQPGGSLRLSCAASGRTFDRHTMTWFRQAPGKEREFVATASRIPGDTYYVDSVKGRFTISRDNAKNSLYLQMNSLRAEDTAVYYCAATSAYCSEVDCYEKGSWYDNWGQGIQVTVSS
–	–	binds	PVRIG-A105-H4 (VHH) VHH: EVQLVESGGGLVQPGGSLRLSCAASGRTFDRHTMTWFRQAPGKEREFVATASRIPGDTYYSHSVKGRFTISRDNAKNSLYLQMNSLRAEDTAVYYCAATSAYCSEVDCYEKGSWYDNWGQGTMVTVSS
–	–	binds	PVRIG-A105-H3 (VHH) VHH: EVQLVESGGGLVQPGGSLRLSCAASGRTFDRHTMTWFRQAPGKEREFVATASRIPGDTYYVDSVKGRFTISRDNAKNSVYLQMNSLRAEDTAVYYCAATSAYCSEVDCYEKGSWYDNWGQGTMVTVSS
–	–	binds	PVRIG-A105-H1 (VHH) VHH: EVQLVESGGGLVQPGGSLRLSCAASGRTFDRHTMSWFRQAPGKEREFVATASRIPGDTYYVDSVKGRFTISRDNAKNSLYLQMNSLRAEDTAVYYCAATSAYCSEVDCYEKGSWYDNWGQGTMVTVSS
–	–	binds	PVRIG-A105-H2 (VHH) VHH: EVQLVESGGGLVQPGGSLRLSCAASGRTFDRHTMTWFRQAPGKEREFVATASRIPGDTYYVDSVKGRFTISRDNAKNSLYLQMNSLRAEDTAVYYCAATSAYCSEVDCYEKGSWYDNWGQGTMVTVSS
binds	binds	binds	PVRIG-A11 (VHH, not shown: a dimerising Fc or GST) VHH: QLQLVESGGGLVQPGGSLRLSCAASGFTDDYYAIGWFRQAPGKEREGVSCISGSGGSTNYEDSVKGRFAISRDNAKNMVYLQMNDLKPEDTAVYYCAADPFWSAPCTGHNDRYFDVWGQGTLVTVSS
binds	binds	binds	PVRIG-A50 (VHH, not shown: a dimerising Fc or GST) VHH: EVQLVESGGGLVQPGGSLRLSCAASGFTFSYYDMSWVRQAPGKGLEWVSTINSNGGRTSYVDSVKGRFTISRDNTKNTLYLQMNSLKPEDTAVYYCVEGDPHNFGLENLSLRDFGSWGQGTQVTVSS
–	–	binds	PVRIG-A50-H1b (VHH) VHH: EVQLVESGGGLVQPGGSLRLSCAASGFTFSYYDMSWVRQAPGKGLEWVSTINSDGGRTSYVDSVKGRFTISRDNSKNTLYLQMNSLRAEDTAVYYCVEGDPHNFGLESLSLRDFGSWGQGTMVTVSS
–	–	binds	PVRIG-A50-H1a (VHH) VHH: EVQLVESGGGLVQPGGSLRLSCAASGFTFSYYDMSWVRQAPGKGLEWVSTINSDGGRTSYVDSVKGRFTISRDNSKNTLYLQMNSLRAEDTAVYYCVEGDPHNFGLENLSLRDFGSWGQGTMVTVSS
–	–	binds	PVRIG-A50-H1d (VHH) VHH: EVQLVESGGGLVQPGGSLRLSCAASGFTFSYYDMSWVRQAPGKGLEWVSTINSNGGRTSYVDSVKGRFTISRDNSKNTLYLQMNSLRAEDTAVYYCVEGDPHNFGLESLSLRDFGSWGQGTMVTVSS
–	–	binds	PVRIG-A50-H1 (VHH) VHH: EVQLVESGGGLVQPGGSLRLSCAASGFTFSYYDMSWVRQAPGKGLEWVSTINSNGGRTSYVDSVKGRFTISRDNSKNTLYLQMNSLRAEDTAVYYCVEGDPHNFGLENLSLRDFGSWGQGTMVTVSS
–	–	binds	PVRIG-A50-H2a (VHH) VHH: EVQLVESGGGLVQPGGSLRLSCAASGFTFSYYDMSWVRQAPGKGLEWVSTINSNAGRTSYVDSVKGRFTISRDNTKNTLYLQMNSLRAEDTAVYYCVEGDPHNFGLESLSLRDFGSWGQGTMVTVSS
–	–	binds	PVRIG-A50-H1c (VHH) VHH: EVQLVESGGGLVQPGGSLRLSCAASGFTFSYYDMSWVRQAPGKGLEWVSTINSDGGRTSYVDSVKGRFTISRDNSKNTLYLQMNSLRAEDTAVYYCVEGDPHNFGLENLALRDFGSWGQGTMVTVSS
–	–	binds	PVRIG-A50-H1e (VHH) VHH: EVQLVESGGGLVQPGGSLRLSCAASGFTFSYYDMSWVRQAPGKGLEWVSTINSNAGRTSYVDSVKGRFTISRDNSKNTLYLQMNSLRAEDTAVYYCVEGDPHNFGLESLSLRDFGSWGQGTMVTVSS
–	–	binds	PVRIG-A118-H1 (VHH) VHH: EVQLVESGGGLVQPGGSLRLSCAASETYFDLYVMGWYRQAPGKDRELVATITYTGSIYYVDSVKGRFTISRDNAKNSLYLQMNSLRAEDTAVYYCNADPSGLGRKVYWGQGTMVTVSS
–	–	binds	PVRIG-A118-H4 (VHH) VHH: EVQLVESGGGLVQPGGSLRLSCAASETYFDLYVMGWYRQAPGKDRELVATITYTGSIKYVDSVKGRFTISRGDAKNSLSLQMNSLRAEDTAVYYCNADPSGLGRKVYWGQGTMVTVSS
–	–	binds	PVRIG-A118-H3 (VHH) VHH: EVQLVESGGGLVQPGGSLRLSCAASETYFDLYVMGWYRQAPGKDRELVATITYTGSIKYVDSVKGRFTISRGDAKNSLYLQMNSLRAEDTAVYYCNADPSGLGRKVYWGQGTMVTVSS
–	–	binds	PVRIG-A118-H5 (VHH) VHH: EVQLVESGGGLVQPGGSLRLSCAASETYFDLYVMGWYRQAPGKDRELVATITYTGSIKYVDSVKGRFTISRGDAKNSVYLQMNSLRAEDTAVYYCNADPSGLGRKVYWGQGTMVTVSS
–	–	binds	PVRIG-A118-H2 (VHH) VHH: EVQLVESGGGLVQPGGSLRLSCAASETYFDLYVMGWYRQAPGKDRELVATITYTGSIKYVDSVKGRFTISRDNAKNSLYLQMNSLRAEDTAVYYCNADPSGLGRKVYWGQGTMVTVSS
–	–	binds	PVRIG-A118-H7 (VHH) VHH: EVQLVESGGGLVQPGGSLRLSCAASETYFDLYVMGWYRQAPGKDRELVATITYTGSIKYVDSVKGRFTISRGDAKNSLYLQMNSLRAEDTAVYFCNADPSGLGRKVYWGQGTMVTVSS
–	–	binds	PVRIG-A118-H6 (VHH) VHH: EVQLVESGGGLVQPGGSLRLSCAASETYFDLYVMGWYRQAPGKDRELVATITYTGSIKIVDSVKGRFTISRGDAKNSLYLQMNSLRAEDTAVYYCNADPSGLGRKVYWGQGTMVTVSS
binds	binds	binds	PVRIG-A118 (VHH, not shown: a dimerising Fc or GST) VHH: QVQLVESGGGLVQAGGSLRLSCAASETYFDLYVMGWYRQAPGKDRELVATITYTGSIKIVDSVKDRFTISRGDAKNTVSLQMSSLKPEDTAVYFCNADPSGLGRKVYWGQGTQVTVSS
